Experimental data: PubChem BioAssay AID1224828 (NIAID, 2016)
Here is an unselected part of about 17,000 deposited reagents. Of all reagents, 762 (4.5%) were called active. 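Active calls include both raised and lowered p65 entry, mostly lowered; wells with fewer than 50 cells lack a z-score.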 Raw values are not corrected between plates. A number with no mark means an inactive call. The numbers tell different reagents against one gene apart. No sequences are given here.

- Test: 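Knock-downs that increase or decrease LPS-induced p65 nuclear translocation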 (primary screen)
- Cells: mouse RAW264.7 G9 macrophage reporter cells (GFP-p65, Tnf promoter-mCherry)
- Knock-down reagent: siRNA pool against mouse genes, 100 nM
- Time to read-out: 2 days siRNA transfection, then 40 min LPS before fixation
- Conditions: LPS (Salmonella minnesota R595) at 10 ng/ml
- Measured: 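Microscopy ratio of nuclear to perinuclear-ring GFP-p65 signal, scaled to the plate median; gene score is the average of two replicate robust z-scores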
- Reading the numbers: p65 translocation robust z-score: higher = more nuclear NF-kappaB p65 after LPS than the plate median; nuclear/cytoplasmic p65 ratio: higher = more nuclear NF-kappaB p65
- Call rule: 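Active if robust z is above 3.3 (negative regulators) or below -1.56, the Tlr4 control median (positive regulators); activity score 50 or more; control wells not called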
- Meaning of the calls: active = hit (p65 shift raised or lowered); inactive = no clear change

Med12: p65 translocation robust z-score = -1.56; nuclear/cytoplasmic p65 ratio, rep 1 = 1.24; nuclear/cytoplasmic p65 ratio, rep 2 = 1.35; low cell count flag = enough cells to score
Or6d15: nuclear/cytoplasmic p65 ratio, rep 1 = 1.46; nuclear/cytoplasmic p65 ratio, rep 2 = 1.16; low cell count flag = fewer than 50 cells per well; well left out of scoring
Tgoln1: nuclear/cytoplasmic p65 ratio, rep 1 = 1.32; nuclear/cytoplasmic p65 ratio, rep 2 = 1.15; low cell count flag = fewer than 50 cells per well; well left out of scoring
Arl4d #1: p65 translocation robust z-score = 0.71; nuclear/cytoplasmic p65 ratio, rep 1 = 1.62; nuclear/cytoplasmic p65 ratio, rep 2 = 1.81; low cell count flag = enough cells to score
Arl4d #2: p65 translocation robust z-score = -0.59; nuclear/cytoplasmic p65 ratio, rep 1 = 1.58; nuclear/cytoplasmic p65 ratio, rep 2 = 1.37; low cell count flag = enough cells to score
Bhlha9: nuclear/cytoplasmic p65 ratio, rep 1 = 1.05; nuclear/cytoplasmic p65 ratio, rep 2 = 1.21; low cell count flag = fewer than 50 cells per well; well left out of scoring
Rap1gap: p65 translocation robust z-score = 0.68; nuclear/cytoplasmic p65 ratio, rep 1 = 1.57; nuclear/cytoplasmic p65 ratio, rep 2 = 1.66; low cell count flag = enough cells to score
Ear6: nuclear/cytoplasmic p65 ratio, rep 1 = 1.23; nuclear/cytoplasmic p65 ratio, rep 2 = 1.21; low cell count flag = fewer than 50 cells per well; well left out of scoring
Tas2r134: p65 translocation robust z-score = -0.03; nuclear/cytoplasmic p65 ratio, rep 1 = 1.36; nuclear/cytoplasmic p65 ratio, rep 2 = 1.11; low cell count flag = enough cells to score
Shh: p65 translocation robust z-score = -0.36; nuclear/cytoplasmic p65 ratio, rep 1 = 1.52; nuclear/cytoplasmic p65 ratio, rep 2 = 1.48; low cell count flag = enough cells to score
Fam110a: p65 translocation robust z-score = -2.63 (active); nuclear/cytoplasmic p65 ratio, rep 1 = 1.04; nuclear/cytoplasmic p65 ratio, rep 2 = 1.1; low cell count flag = enough cells to score
Tnpo2: nuclear/cytoplasmic p65 ratio, rep 1 = 1.1; nuclear/cytoplasmic p65 ratio, rep 2 = 1.21; low cell count flag = fewer than 50 cells per well; well left out of scoring
Krt20: p65 translocation robust z-score = -0.19; nuclear/cytoplasmic p65 ratio, rep 1 = 1.64; nuclear/cytoplasmic p65 ratio, rep 2 = 1.53; low cell count flag = enough cells to score
Map6d1: p65 translocation robust z-score = 0.31; nuclear/cytoplasmic p65 ratio, rep 1 = 1.78; nuclear/cytoplasmic p65 ratio, rep 2 = 1.73; low cell count flag = enough cells to score
H2-Q6: p65 translocation robust z-score = -1.28; nuclear/cytoplasmic p65 ratio, rep 1 = 1.17; nuclear/cytoplasmic p65 ratio, rep 2 = 1.3; low cell count flag = enough cells to score
Anapc11: p65 translocation robust z-score = -1.02; nuclear/cytoplasmic p65 ratio, rep 1 = 1.48; nuclear/cytoplasmic p65 ratio, rep 2 = 1.45; low cell count flag = enough cells to score
Atp2c1: p65 translocation robust z-score = -0.4; nuclear/cytoplasmic p65 ratio, rep 1 = 1.59; nuclear/cytoplasmic p65 ratio, rep 2 = 1.52; low cell count flag = enough cells to score
Tra2a #1: p65 translocation robust z-score = -1.53; nuclear/cytoplasmic p65 ratio, rep 1 = 1.42; nuclear/cytoplasmic p65 ratio, rep 2 = 1.15; low cell count flag = enough cells to score
Tra2a #2: p65 translocation robust z-score = 1.48; nuclear/cytoplasmic p65 ratio, rep 1 = 1.72; nuclear/cytoplasmic p65 ratio, rep 2 = 1.75; low cell count flag = enough cells to score
Ppil4: p65 translocation robust z-score = -0.36; nuclear/cytoplasmic p65 ratio, rep 1 = 1.33; nuclear/cytoplasmic p65 ratio, rep 2 = 1.15; low cell count flag = enough cells to score
Cygb: p65 translocation robust z-score = 0.77; nuclear/cytoplasmic p65 ratio, rep 1 = 1.68; nuclear/cytoplasmic p65 ratio, rep 2 = 1.92; low cell count flag = enough cells to score

Records above marked active, once more:
Fam110a: p65 translocation robust z-score = -2.63 (active); nuclear/cytoplasmic p65 ratio, rep 1 = 1.04; nuclear/cytoplasmic p65 ratio, rep 2 = 1.1; low cell count flag = enough cells to score
